Some results were stated once for a whole list of compounds, not compound by compound.
Tested on: P. lilacinum strain 251 spores
Test: spore viability (germination rate on agar) of P. lilacinum spores in carrier fluid after storage at 30° C.
Type: cell-based, Purpureocillium lilacinum
Conditions: text summary of Table I, approx.
Procedure: 3 g of P. lilacinum strain 251 pure spore powder were transferred into a formulation vessel (IKA Type DT-20 mixing vessel with dispersion tool for Ultra Turrax) using a sterile spoon. 12 mL of fluid were added into the respective formulation vessel and dispersed using ultra turrax tube drive control for 1 min at 3000 rpm; change direction after 30 sec. After this 2.8 mL were transferred in four sample bottles (Wheaton Serum vial, Type I) leaving little headspace and closed tight using crimpneck caps (Macherey—Nagel type N 13) Afterwards all sample bottles were transferred to an incubator set at 30° C. and stored for a given time.
In regular intervals a sample was retrieved from the storage location and analyzed for spore viability. Therefore the original samples were thoroughly homogenized. Aliquots of 0.25 g or […] of each sample are transferred into 50 mL falcon tubes. The tubes were filled up to 25 g using a sterile aqueous solution containing 2% Tween 80 and homogenized by vortexing to achieve the first dilution step (1:100 dilution). This dilution is used for further dilution and spotting on agar.
For evaluation of spore germination rate prepare a 1:30000 dilution based on the 1:100 dilution achieved by multiple automated dilution (pipetting robot, 96 well plate). […] At least 200 spores per sample need to be evaluated. […]

In the case of “2-(2-Ethoxyethoxy)ethyl acetate; Diethylene glycol monoethyl ether acetate [n-Butyldiglycolacetat]”, the “spore viability after storage for 2 or 3 months, respectively” value is reported as no less than 80%.

From patent US20220015355A1, “NOVEL CARRIER FLUIDS FOR LIQUID FUNGAL SPORE FORMULATIONS” (priority 2018, published 2022)
